{"source": "patent US4471116A", "about": "“Substituted (10H-phenothiazin-10-L)-propyl-1-piperazines” (Hoffmann-La Roche Inc., priority 1982, dated 1984)", "tested_on": "Prolactin Secretion", "assay": "Prolactin Secretion (in-vitro)", "assay_type": "cell-based", "conditions": "Rat, read-out: Prolactin Secretion ID50", "data": [{"smiles": "O=C(CCCN1CCC(O)(c2ccc(Cl)cc2)CC1)c1ccc(F)cc1", "note": "[Haloperidol, haloperidol, reference compound]", "values": [{"measurement": "IC50", "value": 27, "unit": "nM"}]}]}
